# Data taken from patent US10232060B2, “CEST systems exhibiting a concentration independent responsiveness” (BRACCO IMAGING S.P.A., priority 2010, dated 2019).
# How the values were obtained:
# [1] = test system: Mesenchimal stam cells; test: Use of Yb(III)HPDO3A to assess the intracellular pH (CEST MRI of cell pellets); type: cell-based, murine
# [2] = test system: animal model of melanoma; test: In vivo assessment of the pH on animal model of melanoma (CEST MRI, ratiometric method); set-up: species or system mice; details: i.v. 1.2 mmol/Kg
structure (smiles),measurement,setting,value
CC(O)CN1CCN(CC(=O)[O-])CCN(CC(=O)[O-])CCN(CC(=O)[O-])CC1.[Yb+3] (stereo not shown) [YbHPDO3A],"measured intracellular pH, cells electroporated with the complex","[1]; MSH cells electroporated with 0.15M solution in PBS pH 7.4, irradiation at 72 and 99 ppm",7.00±0.2
same,"measured intracellular pH, cells incubated with the complex","[1]; MSH cells incubated 3 hours with 0.15M solution in PBS, 37°, pH 7.4 (capillary 2)",6.8±0.3
same,ST % effect in cell pellets (in words),"[1]; irradiation at 72 and 99 ppm, versus cells incubated only with PBS",could be seen only for those cells incubated or electroporated with YbHPDO3A
same,physiological T from shift of the exchanging pool in the Z-spectrum of the bladder,[2]; anaesthetised mice,33 °C
same,pH in the bladder,"[2]; mice, ratiometric method",6.06±0.2
same,pH in the kidneys medulla,"[2]; mice, ratiometric method",6.24±0.2
same,pH in the tumor region,"[2]; mice, subcutaneous B16 melanoma, ratiometric method",6.6±0.2
